“And” between values parts separate entries of the source, which are not always exact repeats. Equal entries are not always repeated. Hit rate of the full screen: of about 340,000 compounds, about 170 (0.05%) were called active. Inconclusive results, whose numbers are uncertain, are shown with a selection of clear calls. Calls come from the whole dose curve; as a rule, active = well fitted inhibition curve with a large enough effect in the signal ratio, with a control signal flat (not every such curve was filed as active); inconclusive = small, poorly fitted or top-dose-only effect, or effect the other way, or a change in a side signal; inactive = flat fitted curve, though single readings scatter; the % refers to the signal ratio. Potencies of inconclusive entries are doubtful fits and often do not repeat.
Test: qHTS Assay to Find Inhibitors of Chronic Active B-Cell Receptor Signaling;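 for activity change, negative = inhibition: plate controls were basal doxycycline-induced cells for no effect and cells given 10 µM MG132 for full effect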
Conditions: ABC-DLBCL IkBa-CBG/CBR reporter, luminescence ratio (green luciferase fused to IkBa over red control in TMD8 lymphoma cells), 4 h; activity change, negative = inhibition: at 46.1 µM (top of the series) unless noted
Method in brief: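 TMD8 ABC-DLBCL cells carrying doxycycline-inducible green luciferase fused to IkappaBalpha plus unfused red luciferase were exposed to compounds (up to 46 uM) for 4 hrs at 37C. Activity came from the overlap-corrected green/red luminescence ratio.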
Potency is the fitted concentration of half-maximal effect.

Row | SMILES | activity change, negative = inhibition | Potency
1 | CC1CCN(C(=O)c2[nH]cnc2C(=O)Nc2ccc(Cl)cc2)CC1 | inactive | –
2 | Cc1ccc(C)c(NC(=O)COc2coc(CN3CCc4ccccc4C3)cc2=O)c1 | inactive | –
3 | CS(=O)(=O)c1ccc(Cl)c(NC(=O)C2CCCCN2S(=O)(=O)c2ccccc2)c1 (configuration not stated) | inactive | –
4 | CCOC(=O)CNC(=O)N1CCc2ccc(NC(=O)c3ccccc3OC)cc2C1 | – | inconclusive: 22.4 µM [falling, single point]
5 | Cc1oc(-c2cccc(C(F)(F)F)c2)nc1CN1CCOCC1 | – | inconclusive: 35.5 µM [falling, single point]
6 | COC(=O)C1=C(C)NC2=C(C(=O)C(C(=O)OC)C(c3ccc(OC)cc3)C2)C1c1ccccn1 (configuration not stated) | inconclusive: -2.21% | –
7 | CCCn1c(NCc2ccco2)nc2c1c(=O)n(C)c(=O)n2C | inconclusive: 17.5% | –
8 | CCOC(=O)c1c(NC(=O)COc2ncnc3ccccc23)sc(C)c1CC | inconclusive: -15.3% | –
9 | CC(C)c1cc(C(N)=O)c(NC(=O)c2cccc(COc3ccc(Br)cc3)c2)s1 | – | inconclusive: 1.46 µM [rising, full curve, poor fit]
10 | CCOc1ccc2[nH]c(=O)c(CN(Cc3ccco3)C(=O)c3cccc(F)c3)cc2c1 | inactive | –
11 | COc1ccc(S(=O)(=O)Cc2ccc(C(=O)NCc3ccc(C)cc3)o2)cc1 | inactive | –
12 | O=C(N/N=C/c1cccs1)c1ccc2ncccc2c1 | inconclusive: -9.88% | –
13 | CCN=c1scc(-c2ccccc2)n1/N=C/c1ccccn1 | – | inconclusive: 29.1 µM [falling, single point]
14 | CCC(=O)NCCc1nc2cc(NC(=O)c3cccc([N+](=O)[O-])c3)ccc2n1C | – | inconclusive: 25.1 µM [falling, partial curve, poor fit]
15 | Cc1ccc(CNC(=O)C2CCC(CNS(=O)(=O)c3cccs3)CC2)cc1 (configuration not stated) | inconclusive: -0.527% | –
16 | CCS(=O)(=O)N1Cc2ccccc2CC1C(=O)Nc1nc2c(C)cccc2s1 (configuration not stated) | inconclusive: 5.35% | –
17 | CC(C)(C)OC(=O)N1CC=C2C(C#N)=C(N)C(C#N)(C#N)C(c3cccs3)C2C1 (configuration not stated) | – | inconclusive: 29.1 µM [falling, single point]
18 | Cn1c(=O)n(CCc2ccccc2)c(=O)c2c1nc1n2CCCN1CCc1ccccc1 | inactive | –
19 | CC1(C)Oc2ccc(C(=O)NC3CCCC3)cc2N(CC(=O)NC2CCCCC2)C1=O | – | inconclusive: 4.61 µM [falling, single point]
20 | CCn1c(/N=C/c2ccc(OC)cc2O)nc2ccccc21 | inactive | –
21 | O=C(c1ccc(Cn2c(=O)[nH]c3ccccc3c2=O)cc1)N1CCN(c2ccccc2)CC1 | inactive | –
22 | Cc1[nH]c2ccccc2c1C(=O)CSc1nc2ccccc2c(=O)n1-c1ccccc1F | inconclusive: -1.19% | –
23 | CCc1c(O)nc(N2CCN(Cc3ccccc3)CC2)[nH]c1=O | inconclusive: -2.6% | –
24 | Cc1cn(-c2cc(NC(=O)c3ccc(C)c(NC(=O)c4cccc(-c5cn[nH]c(=O)c5)c4)c3)cc(C(F)(F)F)c2)cn1 | inconclusive: -18.5% | –
25 | Cc1onc(-c2ccccc2)c1C(=O)OCC(=O)NCc1ccc(F)cc1 | inconclusive: 8.15% | –
26 | COc1ccc(OC)c(NC(=O)c2nnn(Cc3ccc(Br)cc3F)c2N)c1 | inconclusive: -4.3% | –

Row | SMILES | activity change, negative = inhibition | Potency
27 | COc1ccccc1NCCC(=O)OCC(=O)Nc1cccc(S(=O)(=O)N(C)C)c1 | inconclusive: 0.67% | –
28 | COc1cc(OC)cc(C(=O)NNC(=O)c2nn(C)c(=O)c3ccccc23)c1 | inconclusive: -0.974% | –
29 | Clc1cccc(-c2noc3ncnc(Nc4ccc5c(c4)OCO5)c23)c1 | – | inconclusive: 0.316 µM [falling, full curve, poor fit]
30 | CN1CCc2c(OCC(=O)N3N=C(c4cccs4)CC3c3ccc(F)cc3)cccc2C1=O (configuration not stated) | – | inconclusive: 9.2 µM [cytotoxic, partial curve]
31 | CC(=O)N(Cc1ccccc1)c1ccccc1C(=O)O | inconclusive: 9.93% | –
32 | CCN(CC)c1ccc(/C=C2\C(=N)N3N=C(CC(=O)N4CCOCC4)SC3=NC2=O)cc1 | inactive | –
33 | COc1cccc(N2CCN(C(=O)CCNS(=O)(=O)c3ccc4c(c3)c(=O)n(C)c(=O)n4C)CC2)c1 | inconclusive: -14.9% | –
34 | COc1cc(NC(=O)CC(C)n2ccnc2)cc(OC)c1 (configuration not stated) | inconclusive: 5.28% | –
35 | CCC(C)Sc1ccc(-c2nc3ccccn3c2NCc2ccccc2)cc1OC (configuration not stated) | inconclusive: 5.62% | –
36 | Cc1ccc(S(=O)(=O)N2CCOCC2)cc1C(=O)OCC(=O)N1CCc2ccccc2C1 | inconclusive: 2.25% | –
37 | O=[N+]([O-])c1ccc(OCC2CC(c3ccccc3)=NO2)cc1 (configuration not stated) | inconclusive: 2.19% | –
38 | O=c1c2ccccc2nnn1CSc1ccc2c(c1)OCCO2 | – | inconclusive: 35.5 µM [falling, single point]
39 | CCCCC(=O)NC(c1ccccc1Cl)c1ccc2cccnc2c1O (configuration not stated) | inconclusive: -7.68% | –
40 | Cc1nc(-c2cccc(Br)c2)ccc1C(=O)O | inconclusive: 22.4% | –
41 | O=C(CSc1nc(-c2cccs2)nc2ccccc12)NC1CCS(=O)(=O)C1 (configuration not stated) | inconclusive: -5.08% | –
42 | Cc1cccc(/C(N)=N/OC(=O)c2ccoc2C)c1 | – | inconclusive: 31.6 µM [falling, single point]
43 | COc1ccc(N2CCN(C(=O)COc3ccc4c(C)cc(=O)oc4c3)CC2)cc1 | inconclusive: -0.76% | –
44 | Cc1csc2nc(CSc3nc4ccccc4o3)cn12 | – | inconclusive: 35.5 µM [cytotoxic, single point]
45 | COc1ccc(-c2cc(C(C)=O)c(C)n2CCC(=O)NC2CCCCC2)cc1 | – | inconclusive: 2.82 µM [falling, partial curve, poor fit]
46 | Cc1ccc(S(=O)(=O)N2CCOCC2)cc1C(=O)Nc1ccc(-c2cn3ccsc3n2)cc1 | inconclusive: -23.2% | –
47 | CN(C)c1ccc(/C=C(\C#N)c2ccccn2)cc1 | – | inconclusive: 4.11 µM [falling, single point]
48 | O=C(NCCc1ccccc1)c1ccc2c(c1)OCCO2 | – | inconclusive: 5.62 µM [rising, single point]
49 | Oc1cccc2ccc(/C=C/c3ccc(Br)s3)nc12 | – | inconclusive: 17.8 µM [cytotoxic, single point]
50 | NS(=O)(=O)c1ccc(CCNC(=S)NC2CCCC2)cc1 | inconclusive: -20.4% | –
51 | C=CCN1CC(=O)N2C(c3ccccc3)c3[nH]c4ccccc4c3C[C@H]2C1=O (some centres not stated) | inconclusive: -7.54% | –
52 | COc1ccc(/C=C/c2onc(C)c2S(=O)(=O)N2CCC(C(=O)N3CCCCC3)CC2)cc1 | inconclusive: 9.63% | –

Row | SMILES | activity change, negative = inhibition | Potency
53 | COc1cccc(CN2CCCC(C(=O)N3CCCCC3)C2)c1OC (configuration not stated) | inactive | –
54 | Cc1ccc(-c2cn(-c3ccc(OC(F)F)cc3)c3[n+]2CCCCC3)cc1 | inconclusive: 3.2% | –
55 | C=CCOc1ccc(/C=C2/C(=O)ON=C2C)cc1OC | inactive | –
56 | CN(C)c1cccc2c1c(NC(=O)Nc1ccccc1)nn2C | inconclusive: 7.13% | –
57 | O=S(=O)(Nc1cc(C(F)(F)F)ccc1N1CCOCC1)c1ccc2ccccc2c1 | inconclusive: -0.0061% | –
58 | CC(C)(C)OC(=O)NCCCCCNC(=O)c1[nH]cnc1C(=O)Nc1ccccc1 | inconclusive: 9.02% | –
59 | CCCCCCSc1ccc([C@H]2N[C@@](Cc3ccccc3)(C(=O)OC)[C@H]3C(=O)N(CC)C(=O)[C@@H]23)cc1 | inactive | –
60 | CC(Oc1ccccc1)C(=O)N1CCN(c2ccc(N3CCCCC3)nn2)CC1 (configuration not stated) | inactive | –
61 | O=C(CSCc1ccc(Cl)cc1)Nc1cccc(C(=O)Nc2ccccc2C(=O)O)c1 | – | inconclusive: 25.9 µM [falling, partial curve]
62 | COc1ccc(/C(N)=N/OC(=O)C2CCCCC2)cc1OC | inconclusive: 1.02% | –
63 | CCC(=O)N(Cc1cc2ccc(C)cc2n2nnnc12)C1CCCCC1 | inconclusive: -0.825% | –
64 | Cc1cc(C)cc(N(CC(=O)Nc2ccccc2)C2=NC3CS(=O)(=O)CC3S2)c1 (configuration not stated) | – | inconclusive: 35.5 µM [falling, partial curve, poor fit]
65 | O=C(CSc1nnc2ncccn12)N1CCCCCC1 | inconclusive: 1.88% | –
66 | COc1ccc(C#Cc2c(-c3ccccc3)n(-c3ccccc3)c3ccc(CO)cc23)cc1 | inconclusive: 1.15% | –
67 | O=C(Nc1ccccc1)Nc1n[nH]c2nnc(-c3ccccc3)c(-c3ccccc3)c12 | inconclusive: 9.77% | –
68 | Cn1c2ccsc2c2ncn(Cc3ccc(F)cc3)c(=O)c21 | inconclusive: 3.16% and inconclusive: 9.58% | –
69 | C[C@H]1C=C(C(=O)NC2CC2)O[C@@H](OCc2ccc(CO)cc2)C1 | inconclusive: 0.152% | –
70 | Cc1cccc(-c2nc(=S)c3c(o2)CCCC3)c1 | inconclusive: 2.03% | –
71 | COc1ccc(NC(=O)Nc2cccnc2)cc1 | – | inconclusive: 10 µM [falling, partial curve, poor fit]
72 | O=C1Nc2ccccc2C1=Nc1ccc(Cl)cc1 | inconclusive: 0.0108% | –
73 | Cc1ccc(C(=O)Nc2ccccc2-c2ccccc2)cc1S(=O)(=O)Nc1ccccc1 | inconclusive: -0.238% | –
74 | OC(COc1ccc2ccccc2c1)CN1CCCC1 (configuration not stated) | – | inconclusive: 10 µM [falling, partial curve]
75 | CCc1ccc(Oc2cc(Cl)nc(N)n2)cc1 | inconclusive: 3.83% | –
76 | NNC(=O)c1[nH]c2ccc(Cl)cc2c1-c1ccccc1 | – | inconclusive: 3.98 µM [falling, full curve]
77 | Cc1ccc(CNC(=O)c2cn(C)c3ccc(S(=O)(=O)N4CCOCC4)cc3c2=O)cc1 | inconclusive: -6.84% | –

Another view of part of the listing above.
COc1ccc(/C(N)=N/OC(=O)C2CCCCC2)cc1OC
  activity change, negative = inhibition: inconclusive: 1.02%
Cc1cccc(-c2nc(=S)c3c(o2)CCCC3)c1
  activity change, negative = inhibition: inconclusive: 2.03%
Cc1ccc(C(=O)Nc2ccccc2-c2ccccc2)cc1S(=O)(=O)Nc1ccccc1
  activity change, negative = inhibition: inconclusive: -0.238%

From PubChem BioAssay AID493014 (National Center for Advancing Translational Sciences (NCATS), 2011)
